Drawing on PMC5209732, this text covers binding for 6 molecules.

Sequences of proteins named here, by UniProt entry; tags and fusion partners are left off.
UniProt P62136: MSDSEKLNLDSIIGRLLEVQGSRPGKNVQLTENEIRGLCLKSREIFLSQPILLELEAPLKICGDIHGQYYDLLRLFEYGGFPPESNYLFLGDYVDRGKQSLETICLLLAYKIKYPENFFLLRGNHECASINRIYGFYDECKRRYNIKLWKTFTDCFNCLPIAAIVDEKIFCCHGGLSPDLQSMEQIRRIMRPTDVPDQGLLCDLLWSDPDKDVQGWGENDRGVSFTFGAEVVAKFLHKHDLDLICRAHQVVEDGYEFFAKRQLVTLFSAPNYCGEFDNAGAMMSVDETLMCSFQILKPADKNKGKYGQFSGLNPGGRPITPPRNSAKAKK

These are yes or no findings as the source states them, for the method shown. In cells and extracts the contact can be indirect. Some binding calls cover weakened binding; strength is not graded here. Tags and fused reporters may be left off the sequences shown.

For experiment [1], the target named is T1, Myc-tagged PDCD5 (programmed cell death 5) (UniProt O14737).
T1 sequence: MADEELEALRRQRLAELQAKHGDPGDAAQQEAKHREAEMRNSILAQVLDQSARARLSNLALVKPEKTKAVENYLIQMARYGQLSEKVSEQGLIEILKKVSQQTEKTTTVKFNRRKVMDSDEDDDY
Nature of the experiment: co-IP; Myc-PDCD5 and Flag-tagged phosphatases co-transfected into HCT116 (p53+/+); whole-cell lysates (50 mM Tris-Cl pH 7.5, 150 mM NaCl, 1% NP40) immunoprecipitated with anti-Myc and protein A/G agarose overnight at 4 °C, immunoblotted.

The target of experiment [2] is T2, Flag-tagged PPEF-1 (protein phosphatase with EF-hand domain 1) (UniProt O14829).
T2 sequence: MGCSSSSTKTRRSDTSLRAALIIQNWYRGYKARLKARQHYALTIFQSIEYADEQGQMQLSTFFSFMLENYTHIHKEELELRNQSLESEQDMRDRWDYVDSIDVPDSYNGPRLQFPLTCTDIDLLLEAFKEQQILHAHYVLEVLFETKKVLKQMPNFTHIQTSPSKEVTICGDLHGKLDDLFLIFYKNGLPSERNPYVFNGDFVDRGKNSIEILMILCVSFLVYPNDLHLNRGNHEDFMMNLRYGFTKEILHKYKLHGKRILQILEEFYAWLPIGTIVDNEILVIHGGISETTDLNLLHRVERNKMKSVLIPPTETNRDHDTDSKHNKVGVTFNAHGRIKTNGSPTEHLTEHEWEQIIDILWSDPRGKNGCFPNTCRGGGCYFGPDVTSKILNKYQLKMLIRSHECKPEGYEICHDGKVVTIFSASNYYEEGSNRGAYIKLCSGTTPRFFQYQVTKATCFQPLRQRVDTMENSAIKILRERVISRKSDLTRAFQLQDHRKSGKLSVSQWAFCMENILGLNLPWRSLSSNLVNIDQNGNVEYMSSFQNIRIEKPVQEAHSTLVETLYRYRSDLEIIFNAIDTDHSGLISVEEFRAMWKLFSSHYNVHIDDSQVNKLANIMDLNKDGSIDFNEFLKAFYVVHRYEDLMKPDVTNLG
Nature of the experiment: co-IP; Myc-PDCD5 constructs and Flag-PPEF-1 co-transfected into HCT116 (p53+/+); lysates immunoprecipitated with Flag antibodies, immunoblotted. On the technique in general: Immunoblotting shows a protein as a band on a membrane.

Experiment [3] addresses T3, PDCD5 of the GST pull-down (UniProt O14737).
T3 sequence: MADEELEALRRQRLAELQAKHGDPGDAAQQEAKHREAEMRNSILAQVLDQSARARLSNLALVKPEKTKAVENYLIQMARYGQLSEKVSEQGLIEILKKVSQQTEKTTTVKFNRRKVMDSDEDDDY
As to the kind of experiment: pull-down; GST pull-down with Myc-tagged PPEF-1 constructs; bound proteins eluted and analysed by autoradiography; only the target purified.

As for “Flag-tagged PPP1CA (from UniProt P62136 1-330) (enzyme)”, the binding result in experiment [1] was “binds”.

MADEELEALRRQRLAELQAKHGDPGDAAQQ (domain or fragment, UniProt O14737 1-30) [Myc-tagged PDCD5 N-terminal domain (residues 1-30)]: in experiment [2], the binding result is reported as “binds”.

B1: Flag-tagged PPEF-1 (protein phosphatase with EF-hand domain 1) (enzyme, UniProt O14829 1-653)
chain: MGCSSSSTKTRRSDTSLRAALIIQNWYRGYKARLKARQHYALTIFQSIEYADEQGQMQLSTFFSFMLENYTHIHKEELELRNQSLESEQDMRDRWDYVDSIDVPDSYNGPRLQFPLTCTDIDLLLEAFKEQQILHAHYVLEVLFETKKVLKQMPNFTHIQTSPSKEVTICGDLHGKLDDLFLIFYKNGLPSERNPYVFNGDFVDRGKNSIEILMILCVSFLVYPNDLHLNRGNHEDFMMNLRYGFTKEILHKYKLHGKRILQILEEFYAWLPIGTIVDNEILVIHGGISETTDLNLLHRVERNKMKSVLIPPTETNRDHDTDSKHNKVGVTFNAHGRIKTNGSPTEHLTEHEWEQIIDILWSDPRGKNGCFPNTCRGGGCYFGPDVTSKILNKYQLKMLIRSHECKPEGYEICHDGKVVTIFSASNYYEEGSNRGAYIKLCSGTTPRFFQYQVTKATCFQPLRQRVDTMENSAIKILRERVISRKSDLTRAFQLQDHRKSGKLSVSQWAFCMENILGLNLPWRSLSSNLVNIDQNGNVEYMSSFQNIRIEKPVQEAHSTLVETLYRYRSDLEIIFNAIDTDHSGLISVEEFRAMWKLFSSHYNVHIDDSQVNKLANIMDLNKDGSIDFNEFLKAFYVVHRYEDLMKPDVTNLG
Turning to B1, the binding result in experiment [1] was “binds”.

B2: Myc-tagged PPEF-1 of the GST pull-down (enzyme, UniProt O14829 1-653)
chain: MGCSSSSTKTRRSDTSLRAALIIQNWYRGYKARLKARQHYALTIFQSIEYADEQGQMQLSTFFSFMLENYTHIHKEELELRNQSLESEQDMRDRWDYVDSIDVPDSYNGPRLQFPLTCTDIDLLLEAFKEQQILHAHYVLEVLFETKKVLKQMPNFTHIQTSPSKEVTICGDLHGKLDDLFLIFYKNGLPSERNPYVFNGDFVDRGKNSIEILMILCVSFLVYPNDLHLNRGNHEDFMMNLRYGFTKEILHKYKLHGKRILQILEEFYAWLPIGTIVDNEILVIHGGISETTDLNLLHRVERNKMKSVLIPPTETNRDHDTDSKHNKVGVTFNAHGRIKTNGSPTEHLTEHEWEQIIDILWSDPRGKNGCFPNTCRGGGCYFGPDVTSKILNKYQLKMLIRSHECKPEGYEICHDGKVVTIFSASNYYEEGSNRGAYIKLCSGTTPRFFQYQVTKATCFQPLRQRVDTMENSAIKILRERVISRKSDLTRAFQLQDHRKSGKLSVSQWAFCMENILGLNLPWRSLSSNLVNIDQNGNVEYMSSFQNIRIEKPVQEAHSTLVETLYRYRSDLEIIFNAIDTDHSGLISVEEFRAMWKLFSSHYNVHIDDSQVNKLANIMDLNKDGSIDFNEFLKAFYVVHRYEDLMKPDVTNLG
In the case of B2, the binding entry in experiment [3] is “binds”.

B3: Flag-tagged PPP6C (enzyme, UniProt O00743 1-305)
chain: MAPLDLDKYVEIARLCKYLPENDLKRLCDYVCDLLLEESNVQPVSTPVTVCGDIHGQFYDLCELFRTGGQVPDTNYIFMGDFVDRGYYSLETFTYLLALKAKWPDRITLLRGNHESRQITQVYGFYDECQTKYGNANAWRYCTKVFDMLTVAALIDEQILCVHGGLSPDIKTLDQIRTIERNQEIPHKGAFCDLVWSDPEDVDTWAISPRGAGWLFGAKVTNEFVHINNLKLICRAHQLVHEGYKFMFDEKLVTVWSAPNYCYRCGNIASIMVFKDVNTREPKLFRAVPDSERVIPPRTTTPYFL
On to B3, for which the binding entry in experiment [1] is listed as “binds”.

B4: Flag-tagged PPM1K (enzyme, UniProt Q8N3J5 30-372)
chain: DDRRVTPTCHSSTSEPRCSRFDPDGSGSPATWDNFGIWDNRIDEPILLPPSIKYGKPIPKISLENVGCASQIGKRKENEDRFDFAQLTDEVLYFAVYDGHGGPAAADFCHTHMEKCIMDLLPKEKNLETLLTLAFLEIDKAFSSHARLSADATLLTSGTTATVALLRDGIELVVASVGDSRAILCRKGKPMKLTIDHTPERKDEKERIKKCGGFVAWNSLGQPHVNGRLAMTRSIGDLDLKTSGVIAEPETKRIKLHHADDSFLVLTTDGINFMVNSQEICDFVNQCHDPNEAAHAVTEQAIQYGTEDNSTAVVVPFGAWGKYKNSEINFSFSRSFASSGRWA
For the molecule B4, the binding entry in experiment [1] is listed as “binds”.
